This is an account of results in patent US20040121323, “Mrna binding motif” (published 2004).

The comparison behind a weaker result is the experiment's own reference, which may not be listed here. Protein sequences can lack the tags named with them.

The target of the series is T1, Grb14 SH2 domain (aa 426-540) (Homo sapiens) (UniProt Q14449).
T1 sequence (looked up): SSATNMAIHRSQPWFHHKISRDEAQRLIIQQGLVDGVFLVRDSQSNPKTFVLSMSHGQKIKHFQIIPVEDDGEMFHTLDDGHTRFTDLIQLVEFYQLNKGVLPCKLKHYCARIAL
Kind of series: EMSA. The following applies: lower affinity; data not shown; purified recombinant protein; protein details: GST; label: 32P. On the technique in general: A gel shift assay detects complexes by their altered migration in electrophoresis.

On to “GUAUAUGUGAGGAUUUUUAUUGAUUGGGGAUCUUGGAGUUUUUCAUUGUCGCUAUUGAUUUUUACUUCAUGGG [EGF-R 2/2A]”, for which the binding result is “binds more weakly”.
